Data on two compounds can be found in patent US4780467A, “Esters of N-alkyl-nortropines and their quaternary derivatives having anti-bronchospastic activity, and pharmaceutical compositions containing them” (Laboratori Guidotti Spa, priority 1986, dated 1988).

pIC50: −log10 of the molar value. Where two headings read alike, the source gives them in different places.

A word on the LD50: it is the dose expected to kill half of the subjects tested. As usually defined, the pIC50 is the negative decadic logarithm of the IC50, by convention in mol/L.

Data set [1] can be described thus: acute toxicity in the mouse. The conditions noted are these: in vivo, approximate value.
The subject of data set [2] is platelet aggregation (rabbit prp) from arachidonic acid. The data set can be described thus: platelet aggregation (rabbit prp) from arachidonic acid. The conditions noted are these: Oryctolagus cuniculus. The format is cell-based.
In data set [3] the test system is platelet aggregation (rabbit prp) from PAF acether. The data set can be described thus: platelet aggregation (rabbit prp) from PAF-acether. Format: cell-based. The conditions noted are these: Oryctolagus cuniculus.

`CC(C)[N+]1(C)[C@@H]2CC[C@H]1C[C@@H](OC(=O)C(CO)c1ccccc1)C2` (stereo partly shown) [ipratropium bromide, reference compound]: the LD50 in data set [1] (ip, read-out: approximate value of LD50, i.p.) is 85 mg/kg; in data set [1] (po, os, read-out: approximate value of LD50, os), 600 mg/kg.
As to `CN1[C@@H]2CC[C@H]1C[C@@H](OC(=O)C(CO)c1ccccc1)C2` (stereo partly shown) [Atropine sulphate, atropine sulphate, reference compound], the pIC50 in data set [2] was roughly 3.00; in data set [3], less than 3.00.
